Values from PubChem BioAssay AID1508588 (Peter MacCallum Cancer Centre, 2020)
The whole screen tested about 18,000 reagents; shown is a part drawn at random. Over the whole deposit, 790 (4.4%) were called active. 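Calls rest on a combination of fold-change classes in drug and vehicle arms, not all shown here.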 Some reagents were tested in more than one well and are listed for each.

Purpose: 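Genome-wide search for knock-downs that heighten vemurafenib action in melanoma cells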 (primary screen)
System: human WM266.4 melanoma cells (BRAF V600 mutant)
Knock-down reagent: siRNA pool against human genes, 40 nM
Time to read-out: 96 h from transfection to read-out
Treatment: vemurafenib 300 nM (about IC25), added 48 h after transfection, for 48 h; comparison arm got DMSO vehicle only
Measured: 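Cell gain (DAPI nuclei at end minus before drug, mean of two replicates) and medium lactate by absorbance per cell, both as ratio to non-targeting siRNA, also grouped into fold-change classes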
Scale: cell gain with vemurafenib: higher = more cell gain than with non-targeting siRNA; lactate per cell with vemurafenib: higher = more lactate made per cell
Call rule: 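a knock-down counts as enhancing when its fold-change classes with vehicle and with vemurafenib, taken together, show a stronger drug effect on cell gain or lactate per cell; exact class pairs not stated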
Calls: active = enhances vemurafenib effect; inactive = no enhancement seen

| gene knocked down | cell gain with vemurafenib | lactate per cell with vemurafenib | outcome |
| --- | --- | --- | --- |
| TEX28 (testis expressed 28) | 0.49 | 0.89 | inactive |
| N4BP2 (NEDD4 binding protein 2) | 0.84 | 0.84 | inactive |
| ITM2C (integral membrane protein 2C) | 0.21 | 0.98 | inactive |
| TENT4B (terminal nucleotidyltransferase 4B) | 0.58 | 0.86 | inactive |
| TMEM244 (transmembrane protein 244) | 0.76 | 0.72 | inactive |
| PRPSAP1 (phosphoribosyl pyrophosphate synthetase associated protein 1) | -0.04 | 1 | inactive |
| SLAMF1 (signaling lymphocytic activation molecule family member 1) | 0.72 | 0.98 | inactive |
| COX6C (cytochrome c oxidase subunit 6C) | 0.67 | 1.53 | inactive |
| LALBA (lactalbumin alpha) | 0.7 | 0.48 | active |
| F11R (F11 receptor) | 0.94 | 1.21 | inactive |
| TTC32 (tetratricopeptide repeat domain 32) | 0.33 | 0.84 | inactive |
| STAMBP (STAM binding protein) | 0.66 | 0.89 | inactive |
| PCNT (pericentrin) | 0.07 | 2.02 | inactive |
| PTP4A3 (protein tyrosine phosphatase 4A3) | 0.87 | 1.15 | inactive |
| CDHR2 (cadherin related family member 2) | 0.8 | 0.58 | active |
| UST (uronyl 2-sulfotransferase) | 0.42 | 0.02 | active |
| OR6B3 (olfactory receptor family 6 subfamily B member 3) | 0.41 | 1.6 | inactive |
| ITGA2 (integrin subunit alpha 2) | 0.35 | 1.29 | inactive |
| ISLR2 (immunoglobulin superfamily containing leucine rich repeat 2) | 0.66 | 0.58 | inactive |
| PAX2 (paired box 2) | 0.71 | 0.66 | inactive |
| FUS (FUS DNA/RNA binding protein) | 0.47 | 0.72 | inactive |
| ATP5PD (ATP synthase peripheral stalk subunit d) | 1.01 | 0.39 | active |
| FANCB (FA complementation group B) | 0.18 | 2.09 | inactive |
| ADAMTS20 (ADAM metallopeptidase with thrombospondin type 1 motif 20) | 0.89 | 0.5 | inactive |
| COL4A5 (collagen type IV alpha 5 chain) | 0.92 | 0.4 | active |
| HBM (hemoglobin subunit mu) | 0.71 | 1.12 | inactive |
| TSPAN8 (tetraspanin 8) | 0.22 | 0.84 | inactive |
| SRMS | 0.05 | 1.12 | inactive |
| SLC25A51 | 0.33 | 0.74 | inactive |
| ANKRD36B (ankyrin repeat domain 36B) | 1.01 | 0.76 | inactive |
| KIF14 (kinesin family member 14) | 0.07 | 1.84 | inactive |
| TMEM120B (transmembrane protein 120B) | 0.78 | 0.7 | inactive |
| RRM2B | 0.9 | 0.62 | inactive |
| PIP4P1 (phosphatidylinositol-4,5-bisphosphate 4-phosphatase 1) | 0.67 | 0.78 | inactive |
| DENND6A (DENN domain containing 6A) | 0.72 | 0.66 | active |
| GRIA1 (glutamate ionotropic receptor AMPA type subunit 1) | 0.72 | 0.86 | inactive |
| POLA1 (DNA polymerase alpha 1, catalytic subunit) | -0.05 | 1.93 | inactive |
| PNKP (polynucleotide kinase 3'-phosphatase) | 0.25 | 1.6 | inactive |
| IL17RC (interleukin 17 receptor C) | 0.5 | 0.86 | inactive |
| PRKRIP1 (PRKR interacting protein 1) | 0.18 | 0.72 | inactive |
| GCNT2 (glucosaminyl (N-acetyl) transferase 2 (I blood group)) | 1.17 | 0.73 | inactive |
| PFKFB4 (6-phosphofructo-2-kinase/fructose-2,6-biphosphatase 4) | 0.24 | 1.09 | inactive |
| PFKFB4 (6-phosphofructo-2-kinase/fructose-2,6-biphosphatase 4) | 0.29 | 1.12 | inactive |
| BCL2L13 (BCL2 like 13) | 0.75 | 0.76 | inactive |
| NCSTN (nicastrin) | 0.37 | 1.29 | inactive |
| SLC28A3 | 1 | 1.4 | inactive |
| SYNDIG1 (synapse differentiation inducing 1) | 0.61 | 0.53 | inactive |
| PHYHIPL (phytanoyl-CoA 2-hydroxylase interacting protein like) | 1.15 | 1.34 | inactive |
| CBX5 (chromobox 5) | 0.25 | 0.99 | inactive |
| RPS2 (ribosomal protein S2) | -0.03 | 3.64 | inactive |
| NEUROG1 (neurogenin 1) | 0.62 | 0.66 | inactive |
| SLC30A1 | 0.63 | 0.7 | inactive |
| KLRC4 (killer cell lectin like receptor C4) | 0.51 | 1.23 | inactive |
| ARHGAP30 (Rho GTPase activating protein 30) | 0.99 | 1.01 | inactive |
| CHST4 (carbohydrate sulfotransferase 4) | 0.61 | 0.7 | inactive |
| POU4F2 (POU class 4 homeobox 2) | 1.05 | 0.89 | inactive |
| LAMA4 (laminin subunit alpha 4) | 0.53 | 0.58 | inactive |
| ABCB5 (ATP binding cassette subfamily B member 5) | 0.73 | 0.72 | inactive |
| GCNT1 (glucosaminyl (N-acetyl) transferase 1) | 0.29 | 2.41 | inactive |
| PEAK1 (pseudopodium enriched atypical kinase 1) | 0.47 | 1.25 | inactive |
| TMEM270 (transmembrane protein 270) | 0.17 | 0.98 | inactive |
| CTSZ (cathepsin Z) | 0.86 | 1.32 | inactive |
| GZMK (granzyme K) | 0.83 | 0.44 | inactive |
| RPS24 (ribosomal protein S24) | -0.15 | 1.56 | inactive |
| GTF2IRD2 (GTF2I repeat domain containing 2) | 0.52 | 0.91 | inactive |
| MROH5 (maestro heat like repeat family member 5 (gene/pseudogene)) | 0.78 | 1.32 | inactive |
| RPUSD1 (RNA pseudouridine synthase domain containing 1) | 0.95 | 0.6 | inactive |
| PTCD2 (pentatricopeptide repeat domain 2) | 0.1 | 1.71 | inactive |
| ZNF471 (zinc finger protein 471) | 0.6 | 0.94 | inactive |
| SLC13A4 | 0.06 | 2.61 | inactive |
| POLR3G (RNA polymerase III subunit G) | 0.49 | 1.16 | inactive |
| RIOK3 (RIO kinase 3) | 0.85 | 0.66 | inactive |
| STARD3 (StAR related lipid transfer domain containing 3) | 0.68 | 0.91 | inactive |
| TRA2A (transformer 2 alpha homolog) | 0.37 | 1.52 | inactive |
| BRIX1 (biogenesis of ribosomes BRX1) | 0.26 | 1 | inactive |
| S100A2 (S100 calcium binding protein A2) | 0.72 | 0.66 | inactive |
| AWAT1 (acyl-CoA wax alcohol acyltransferase 1) | 0.59 | 1.25 | inactive |
| TGFBI (transforming growth factor beta induced) | 0.31 | 0.32 | inactive |
| PGA5 (pepsinogen A5) | 0.66 | 0.62 | inactive |
| MCMDC2 (minichromosome maintenance domain containing 2) | 0.56 | 1.49 | inactive |
| NPTXR (neuronal pentraxin receptor) | 0.5 | 0.56 | inactive |
| ZNF165 (zinc finger protein 165) | 0.74 | 1.07 | inactive |
| DBN1 (drebrin 1) | 0.94 | 1.88 | inactive |
| ZNF490 (zinc finger protein 490) | 0.6 | 0.71 | inactive |
